The source of these data is paper PMC5755467.

Chains of the proteins cited; added tags and fusions are not shown. Lines headed by an entry give the natural chain unless they say otherwise; changes in a name come on top.
UniProt Q92831: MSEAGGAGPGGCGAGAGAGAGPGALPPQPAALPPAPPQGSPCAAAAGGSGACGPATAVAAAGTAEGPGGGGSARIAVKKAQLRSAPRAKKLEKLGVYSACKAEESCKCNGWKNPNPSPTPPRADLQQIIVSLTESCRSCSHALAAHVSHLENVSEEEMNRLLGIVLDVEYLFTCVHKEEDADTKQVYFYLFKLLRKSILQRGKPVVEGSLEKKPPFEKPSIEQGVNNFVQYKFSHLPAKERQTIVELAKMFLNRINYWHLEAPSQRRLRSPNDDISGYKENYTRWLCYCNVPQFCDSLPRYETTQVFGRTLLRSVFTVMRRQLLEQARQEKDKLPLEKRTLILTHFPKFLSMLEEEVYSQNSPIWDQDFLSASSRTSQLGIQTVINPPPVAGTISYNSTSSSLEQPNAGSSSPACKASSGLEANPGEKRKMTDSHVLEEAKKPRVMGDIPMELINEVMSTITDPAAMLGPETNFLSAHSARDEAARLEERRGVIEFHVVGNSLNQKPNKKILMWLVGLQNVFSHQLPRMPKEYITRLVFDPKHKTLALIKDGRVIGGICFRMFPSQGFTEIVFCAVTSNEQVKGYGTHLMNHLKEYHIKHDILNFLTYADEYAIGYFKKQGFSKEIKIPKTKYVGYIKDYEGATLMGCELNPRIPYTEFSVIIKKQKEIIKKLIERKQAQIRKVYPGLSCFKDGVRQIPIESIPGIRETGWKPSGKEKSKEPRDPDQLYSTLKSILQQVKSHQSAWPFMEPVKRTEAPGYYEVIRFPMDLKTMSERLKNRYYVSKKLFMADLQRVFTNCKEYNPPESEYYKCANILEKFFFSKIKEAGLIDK

In the test the target is FLAG-PCAF-ΔHAT (UniProt Q92831). Briefly: co-IP; whole cell extracts of FLAG-PCAF or PCAF-ΔHAT-transfected cells IP-ed with anti-FLAG; blotted with anti-FLAG and anti-Lin28B (endogenous Lin28B); IP with IgG as control.

No constants are given. Whether binding was seen depends on the method and setting. In cells and extracts the contact can be indirect. Binding calls can cover weak binding; strength is not graded here.

B1: Lin28B (endogenous) (protein, UniProt Q6ZN17 1-250)
chain: MAEGGASKGGGEEPGKLPEPAEEESQVLRGTGHCKWFNVRMGFGFISMINREGSPLDIPVDVFVHQSKLFMEGFRSLKEGEPVEFTFKKSSKGLESIRVTGPGGSPCLGSERRPKGKTLQKRKPKGDRCYNCGGLDHHAKECSLPPQPKKCHYCQSIMHMVANCPHKNVAQPPASSQGRQEAESQPCTSTLPREVGGGHGCTSPPFPQEARAEISERSGRSPQEASSTKSSIAPEEQSKKGPSVQKRKKT
With B1, the binding entry is listed as “binds”.
